Test results as given in paper doi:10.1101/2023.12.18.572145.

By UniProt entry, the sequences of proteins in these tests, tags left out. Where a name states a change or a piece, a line headed by the entry shows the natural chain unless it says otherwise. Chains listed by the source or under a name are the forms on record and can include a tag or linker. Residues count along the entry.
PREPLS, wild type (MAPPIT bait) (Q4J6C6, residues 90-727): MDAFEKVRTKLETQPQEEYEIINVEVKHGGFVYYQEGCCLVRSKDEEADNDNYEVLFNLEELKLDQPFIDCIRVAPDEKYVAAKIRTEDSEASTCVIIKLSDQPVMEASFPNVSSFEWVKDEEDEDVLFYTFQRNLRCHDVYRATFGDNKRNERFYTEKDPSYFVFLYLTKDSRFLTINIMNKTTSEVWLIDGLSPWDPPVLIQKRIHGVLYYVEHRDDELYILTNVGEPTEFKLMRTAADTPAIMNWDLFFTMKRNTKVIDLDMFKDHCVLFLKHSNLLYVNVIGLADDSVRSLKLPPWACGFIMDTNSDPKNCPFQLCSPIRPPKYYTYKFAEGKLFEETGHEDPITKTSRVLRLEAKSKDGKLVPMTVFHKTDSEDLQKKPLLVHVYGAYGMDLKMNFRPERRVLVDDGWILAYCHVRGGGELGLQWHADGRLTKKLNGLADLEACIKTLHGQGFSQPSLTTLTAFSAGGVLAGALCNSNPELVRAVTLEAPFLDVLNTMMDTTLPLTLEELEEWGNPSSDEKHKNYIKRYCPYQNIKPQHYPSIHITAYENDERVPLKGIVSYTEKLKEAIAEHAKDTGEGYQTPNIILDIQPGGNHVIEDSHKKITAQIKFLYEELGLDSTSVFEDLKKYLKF
PREPL p.Arg647Gln (MAPPIT bait) (Q4J6C6, form named): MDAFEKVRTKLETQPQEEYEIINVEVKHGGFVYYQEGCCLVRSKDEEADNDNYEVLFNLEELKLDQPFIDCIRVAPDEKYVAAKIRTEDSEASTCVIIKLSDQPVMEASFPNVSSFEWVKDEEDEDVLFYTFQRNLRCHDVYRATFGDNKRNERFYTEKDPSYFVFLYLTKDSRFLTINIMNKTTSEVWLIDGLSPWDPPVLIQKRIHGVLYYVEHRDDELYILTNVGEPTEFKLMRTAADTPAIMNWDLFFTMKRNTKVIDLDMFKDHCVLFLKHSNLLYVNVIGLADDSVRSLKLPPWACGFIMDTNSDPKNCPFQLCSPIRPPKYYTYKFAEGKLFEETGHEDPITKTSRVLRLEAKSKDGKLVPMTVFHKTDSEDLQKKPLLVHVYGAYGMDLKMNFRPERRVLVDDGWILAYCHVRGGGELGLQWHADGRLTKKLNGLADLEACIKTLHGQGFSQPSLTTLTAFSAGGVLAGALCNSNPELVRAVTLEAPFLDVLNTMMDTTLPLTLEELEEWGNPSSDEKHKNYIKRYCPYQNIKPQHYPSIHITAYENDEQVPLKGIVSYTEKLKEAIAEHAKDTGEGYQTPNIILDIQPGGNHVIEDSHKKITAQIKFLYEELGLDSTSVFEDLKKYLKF
UniProt Q7Z4H4: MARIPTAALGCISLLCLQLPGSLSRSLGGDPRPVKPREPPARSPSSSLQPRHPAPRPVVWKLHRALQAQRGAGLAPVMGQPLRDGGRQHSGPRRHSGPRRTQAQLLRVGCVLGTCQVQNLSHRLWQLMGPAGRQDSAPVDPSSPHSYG
UniProt Q9BTE1: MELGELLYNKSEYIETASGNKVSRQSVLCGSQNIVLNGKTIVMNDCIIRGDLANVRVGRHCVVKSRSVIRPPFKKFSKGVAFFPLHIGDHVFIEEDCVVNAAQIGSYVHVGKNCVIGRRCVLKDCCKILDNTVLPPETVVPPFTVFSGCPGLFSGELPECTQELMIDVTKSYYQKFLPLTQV
UniProt P19404, residues 33-249: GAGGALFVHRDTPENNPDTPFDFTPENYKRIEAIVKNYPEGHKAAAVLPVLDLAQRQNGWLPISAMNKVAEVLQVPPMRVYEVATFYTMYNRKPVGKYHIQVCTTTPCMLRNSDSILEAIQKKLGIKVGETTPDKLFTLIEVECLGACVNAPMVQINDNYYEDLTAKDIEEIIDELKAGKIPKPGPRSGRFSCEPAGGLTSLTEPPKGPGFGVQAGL

Experiments:
Test in all cases: two-hybrid
[1] = target: PREPL β-propeller domain alone (MAPPIT bait) (human) (UniProt Q4J6C6)
[2] = target: PREPL p.Arg647Gln (MAPPIT bait) (human) (UniProt Q4J6C6)
[3] = target: PREPLS, wild type (MAPPIT bait) (human) (UniProt Q4J6C6)
[4] = target: PREPL β-propeller domain alone (MAPPIT bait) (human) (UniProt Q4J6C6); remark: listed apart in the source

Molecule | binding [1] | binding [4] | further results
ARPC5L (from UniProt Q9BPX5 1-153) | no binding |  | 
ADM2 (from UniProt Q7Z4H4) | no binding |  | binding [2]: binds; binding [3]: binds
DCTN5 (from UniProt Q9BTE1 1-182) | no binding |  | 
NDUFV2 (from UniProt P19404 33-249) | binds |  | 
UBL5 (protein, UniProt Q9BZL1 1-73) MIEVVCNDRLGKKVRVKCNTDDTIGDLKKLIAAQTGTRWNKIVLKKWYTIFKDHVSLGDYEIHDGMNLELYYQ |  | binds | 
DISC1 (protein, UniProt Q9NRI5 1-854) MPGGGPQGAPAAAGGGGVSHRAGSRDCLPPAACFRRRRLARRPGYMRSSTGPGIGFLSPAVGTLFRFPGGVSGEESHHSESRARQCGLDSRGLLVRSPVSKSAAAPTVTSVRGTSAHFGIQLRGGTRLPDRLSWPCGPGSAGWQQEFAAMDSSETLDASWEAACSDGARRVRAAGSLPSAELSSNSCSPGCGPEVPPTPPGSHSAFTSSFSFIRLSLGSAGERGEAEGCPPSREAESHCQSPQEMGAKAASLDGPHEDPRCLSRPFSLLATRVSADLAQAARNSSRPERDMHSLPDMDPGSSSSLDPSLAGCGGDGSSGSGDAHSWDTLLRKWEPVLRDCLLRNRRQMEVISLRLKLQKLQEDAVENDDYDKAETLQQRLEDLEQEKISLHFQLPSRQPALSSFLGHLAAQVQAALRRGATQQASGDDTHTPLRMEPRLLEPTAQDSLHVSITRRDWLLQEKQQLQKEIEALQARMFVLEAKDQQLRREIEEQEQQLQWQGCDLTPLVGQLSLGQLQEVSKALQDTLASAGQIPFHAEPPETIRSLQERIKSLNLSLKEITTKVCMSEKFCSTLRKKVNDIETQLPALLEAKMHAISGNHFWTAKDLTEEIRSLTSEREGLEGLLSKLLVLSSRNVKKLGSVKEDYNRLRREVEHQETAYETSVKENTMKYMETLKNKLCSCKCPLLGKVWEADLEACRLLIQSLQLQEARGSLSVEDERQMDDLEGAAPPIPPRLHSEDKRKTPLKVLEEWKTHLIPSLHCAGGEQKEESYILSAELGEKCEDIGKKLLYLEDQLHTAIHSHDEDLIQSLRRELQMVKETLQAMILQLQPAKEAGEREAAASCMTAGVHEAQA |  | no binding | 
MDM1 (protein, UniProt Q8TC05 1-714) MPVRFKGLSEYQRNFLWKKSYLSESCNSSVGRKYPWAGLRSDQLGITKEPSFISKRRVPYHDPQISKSLEWNGAISESNVVASPEPEAPETPKSQEAEQKDVTQERVHSLEASRVPKRTRSHSADSRAEGASDVENNEGVTNHTPVNENVELEHSTKVLSENVDNGLDRLLRKKAGLTVVPSYNALRNSEYQRQFVWKTSKETAPAFAANQVFHNKSQFVPPFKGNSVIHETEYKRNFKGLSPVKEPKLRNDLRENRNLETVSPERKSNKIDDRLKLEAEMELKDLHQPKRKLTPWKHQRLGKVNSEYRAKFLSPAQYLYKAGAWTHVKGNMPNQVKELREKAEFYRKRVQGTHFSRDHLNQILSDSNCCWDVSSTTSSEGTVSSNIRALDLAGDPTSHKTLQKCPSTEPEEKGNIVEEQPQKNTTEKLGVSAPTIPVRRRLAWDTENTSEDVQKQPGEKEEEDDNEEEGDRKTGKQAFMGEQEKLDVREKSKADKMKEGSDSSVSSEKGGRLPTPKLRELGGIQRTHHDLTTPAVGGAVLVSPSKMKPPAPEQRKRMTSQDCLETSKNDFTKKESRAVSLLTSPAAGIKTVDPLPLREDSEDNIHKFAEATLPVSKIPKYPTNPPGQLPSPPHVPSYWHPSRRIQGSLRDPEFQHNVGKARMNNLQLPQHEAFNDEDEDRLSEISARSAASSLRAFQTLARAKKRKENFWGKT |  | no binding | 

Where two headings read alike, the source gives them in different places. No constants are given. Whether binding was seen depends on the method and setting. A result given as binding can be weak or reduced; the word gives no strength.
